These results are taken from PMC7248865.

Protein sequences, listed by entry. Tags and fused reporters are not part of them. Residues count along the entry.
UniProt P02769, 25-607: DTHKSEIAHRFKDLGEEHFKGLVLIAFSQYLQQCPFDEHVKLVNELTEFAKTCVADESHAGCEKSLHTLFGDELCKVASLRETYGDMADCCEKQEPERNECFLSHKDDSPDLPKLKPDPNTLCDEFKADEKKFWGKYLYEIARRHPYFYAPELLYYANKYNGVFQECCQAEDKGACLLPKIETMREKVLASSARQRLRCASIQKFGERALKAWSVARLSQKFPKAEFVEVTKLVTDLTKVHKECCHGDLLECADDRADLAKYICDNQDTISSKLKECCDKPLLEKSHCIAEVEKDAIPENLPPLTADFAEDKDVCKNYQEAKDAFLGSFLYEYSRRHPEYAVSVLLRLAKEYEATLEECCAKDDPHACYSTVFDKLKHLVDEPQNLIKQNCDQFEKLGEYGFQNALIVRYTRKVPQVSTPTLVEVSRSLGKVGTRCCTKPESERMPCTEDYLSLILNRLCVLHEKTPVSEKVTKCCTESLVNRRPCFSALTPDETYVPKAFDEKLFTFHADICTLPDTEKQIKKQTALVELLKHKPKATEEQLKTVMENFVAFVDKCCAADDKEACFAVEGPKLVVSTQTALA

The exact form of at least one protein or probe is not confirmed. Weaker means in comparison with the reference protein, sequence or condition of that experiment.

The target in one data set is BSA (UniProt P02769). Description: graphene FET (drain current). The following applies: 1 pg/mL BSA, ID 47.34 uA vs 338.64 uA for ADH; 5'-amine; PBS (or human serum), 10 min incubation per concentration, PBS washes; pH and temperature not stated; single-stranded DNA.
Another data set relates to glucose oxidase (GOx). Description: graphene FET (drain current). To be noted: in place of ADH, ID 25.55 uA vs 338.64 uA for ADH, called non-specific; 5'-amine; PBS (or human serum), 10 min incubation per concentration, PBS washes; pH and temperature not stated; single-stranded DNA.

Take “TCACGTGCATGATAGACGGCGAAGCCGTCGAGTTGCTGTGTGCCGATGCACGTGA [ADH-specific aptamer]”: the binding result with BSA and in the data set on glucose oxidase (GOx) was “binds more weakly” throughout.
